# Measurements taken from publication doi:10.1101/2020.02.20.958934.
# No constants are given. Whether binding was seen depends on the method and setting. Binding seen in cells or lysates may run through a third protein. Some entries that bind do so weakly or less than the wild type. For some assays here: Sequences can lack the tags named with a protein.
# Columns and labels:
# DCF1-his-myc = target: T1, DCF1-his-myc (UniProt Q9QY73); test: co-IP
# T1 sequence: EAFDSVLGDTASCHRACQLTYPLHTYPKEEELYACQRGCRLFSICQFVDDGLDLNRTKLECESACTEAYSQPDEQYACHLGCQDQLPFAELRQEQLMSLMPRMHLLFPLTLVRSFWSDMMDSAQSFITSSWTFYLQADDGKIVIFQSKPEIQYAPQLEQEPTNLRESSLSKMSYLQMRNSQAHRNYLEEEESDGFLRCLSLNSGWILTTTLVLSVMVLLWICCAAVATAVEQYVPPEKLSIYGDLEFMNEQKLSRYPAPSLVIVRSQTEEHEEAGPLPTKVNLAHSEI
# PEBP1-1d4 = target: T2, PEBP1-1d4 (UniProt P70296); test: co-IP
# T2 sequence: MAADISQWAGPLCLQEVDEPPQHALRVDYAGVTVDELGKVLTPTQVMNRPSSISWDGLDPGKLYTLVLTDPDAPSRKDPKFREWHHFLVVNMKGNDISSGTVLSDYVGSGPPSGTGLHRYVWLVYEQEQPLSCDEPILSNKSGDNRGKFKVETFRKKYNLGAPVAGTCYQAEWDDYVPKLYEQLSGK
substance,measurement,setting,value
RAF1 (from UniProt P04049 1-648),binding,DCF1-his-myc,binds
same,binding,PEBP1-1d4,binds
